Measured values taken from PubChem BioAssay AID1347422 (Sanford-Burnham Center for Chemical Genomics, 2020).
In all, about 1,000 compounds were measured (“thermal shift dTm”: median about 0.19, highest 2% from about 1.7 on). This is one part of the list. Active and inactive are the calls of the source.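 Rule for the calls: active = mean rise in melting temperature of at least 1 degC over same-plate control wells; inactive = below that, where a call was filed.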

Chains of the proteins cited; added tags and fusions are not shown. Lines headed by an entry give the natural chain unless they say otherwise; changes in a name come on top.
UniProt O00391: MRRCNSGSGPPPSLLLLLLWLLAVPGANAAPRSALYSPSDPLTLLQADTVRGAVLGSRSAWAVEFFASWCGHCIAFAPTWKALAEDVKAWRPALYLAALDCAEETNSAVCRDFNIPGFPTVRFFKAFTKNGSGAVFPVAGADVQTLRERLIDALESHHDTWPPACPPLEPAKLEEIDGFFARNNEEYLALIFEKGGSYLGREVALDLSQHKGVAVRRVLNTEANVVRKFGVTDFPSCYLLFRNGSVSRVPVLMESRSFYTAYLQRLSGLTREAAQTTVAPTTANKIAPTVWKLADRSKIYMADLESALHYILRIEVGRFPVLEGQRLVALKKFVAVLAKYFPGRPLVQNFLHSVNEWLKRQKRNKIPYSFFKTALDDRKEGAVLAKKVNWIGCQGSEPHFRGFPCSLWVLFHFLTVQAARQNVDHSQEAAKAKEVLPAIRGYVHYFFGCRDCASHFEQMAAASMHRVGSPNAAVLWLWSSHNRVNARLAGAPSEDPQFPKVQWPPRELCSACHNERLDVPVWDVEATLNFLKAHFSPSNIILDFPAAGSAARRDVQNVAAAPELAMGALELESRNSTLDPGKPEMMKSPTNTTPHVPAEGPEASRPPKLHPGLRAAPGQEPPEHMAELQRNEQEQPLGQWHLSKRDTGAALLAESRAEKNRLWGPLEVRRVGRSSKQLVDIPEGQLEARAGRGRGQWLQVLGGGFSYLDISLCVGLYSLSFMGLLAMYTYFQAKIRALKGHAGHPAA

The molecules below were run against Sulfhydryl oxidase 1 (Homo sapiens) (UniProt O00391) (assay: QSOX1 binders by thermal stabilization, confirmation, QSOX1 inhibitor project, biophysical, protein thermal shift, single concentration (AID 1347422;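 note: dTm is compound Tm minus mean Tm of DMSO-only wells on that plate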)). Details: recombinant hQSOX1 thermal shift, Sypro Orange, at 25 µM, stronger effect = higher value.
In the case of `c1ccc(COc2ccc(-c3noc(-c4ccccn4)n3)cc2)cc1`, the thermal shift dTm is reported as 0.01 °C.
`COc1ccc(OCC(=O)Nc2cccc(-c3cnc4ccccc4n3)c2)cc1` showed a thermal shift dTm of 0.16 °C.
Work on `Cc1cc(-n2nc(C)cc2C)nc(-c2ccccc2O)n1` yielded a thermal shift dTm of 0.04 °C.
`NC(=O)c1ccc(-c2cccc(-c3ccn[nH]3)c2)cc1` was tested, and the thermal shift dTm was 0.42 °C.
For `COc1ccc(Nc2c(C(=O)O)cnc3ccc(Cl)cc23)cc1Cl`, the thermal shift dTm was 0.34 °C.
For `COc1ccc2[nH]cc(CCNC(=O)c3ccc(NC(C)=O)cc3)c2c1`, the thermal shift dTm was active: 1 °C.
`Cc1ccc(C2Nc3c(C)ccc(C(=O)O)c3C3C=CCC32)cc1` (centres undefined) was tested, and the thermal shift dTm was active: 1.51 °C.
In the case of `O=C(Nc1cccc(-c2noc(CCc3ccccc3)n2)c1)c1cccs1`, the thermal shift dTm is reported as 0.1 °C.
`CCCCC1=NN2C(=N)/C(=C/c3ccc(OC(=O)c4ccc(F)cc4)c(OC)c3)C(=O)N=C2S1` showed a thermal shift dTm of 0.16 °C.
`COc1ccccc1NC(=O)N1c2ccccc2Sc2ccccc21` was tested, and the thermal shift dTm was inactive: -0.03 °C.
For `CCCSC1=N/C(=C\c2ccc(-c3ccc(Cl)cc3)o2)C(=O)S1`, the thermal shift dTm was 0.95 °C.
With `O=S(=O)(NCCC1=CCCCC1)c1ccc(Cl)s1` the thermal shift dTm was 0.17 °C.
`C=CC(C)(C)OCC(O)CN1C(C)(C)CC(O)CC1(C)C` (centres undefined) showed a thermal shift dTm of 0.13 °C.
For `Cc1ccc(Cl)c(OCc2nnc3n2N=C(c2ccccc2)CS3)c1`, the thermal shift dTm was 0.25 °C.
`O=C(Nc1cccc(-c2nn[nH]n2)c1)c1cc2c(s1)CCCCC2` was tested, and the thermal shift dTm was 0.7 °C.
`CCOc1ccccc1-c1nc2ccc(Br)cc2c(=O)o1` gave a thermal shift dTm of 0.44 °C.
With `O=C(Nc1nccs1)c1cccc(NC(=O)c2cccs2)c1` the thermal shift dTm was active: 1.45 °C.
With `Nc1cccc(Oc2ccc(C(=O)O)c(C(=O)O)c2)c1` the thermal shift dTm was 0.84 °C.
For `O=S(=O)(c1cccs1)N1CCC(CO)(Cc2ccc(Cl)cc2)CC1`, the thermal shift dTm was 0.18 °C.
`CS(=O)(=O)Nc1ccc(C2=NN(C(=O)c3cccs3)C(c3cccs3)C2)cc1` (centres undefined) gave a thermal shift dTm of 0.61 °C.
`Cc1ccc(CN2CCN(/N=C\c3ccc(O)cc3)CC2)cc1` gave a thermal shift dTm of 0.1 °C.
With `O=C(Nc1ccc(Cl)cc1)Nc1ccccc1OC(F)F` the thermal shift dTm was 0.25 °C.
`CCCOC(=O)c1c(NC(=O)C2CC=CCC2C(=O)O)sc(C)c1-c1ccc(F)cc1` (centres undefined) showed a thermal shift dTm of 0.77 °C.
In the case of `CN1C(=O)NC(NC(=O)CCc2ccccc2)(C(F)(F)F)C1=O` (centres undefined), the thermal shift dTm is reported as 0.16 °C.
`COc1cccc(C(=O)NCCc2c[nH]c3ccc(C)cc23)c1` gave a thermal shift dTm of 0.07 °C.
With `Brc1ccc(Nc2nc(NCc3ccco3)c3ccccc3n2)cc1` the thermal shift dTm was inactive: -0.54 °C.
For `O=C(Nc1ccccc1)N(Cc1ccc(Cl)cc1)Cc1ccco1`, the thermal shift dTm was 0.16 °C.
`COc1ccccc1NC(=O)CSCc1cccc2ccccc12` gave a thermal shift dTm of 0.02 °C.
For `O=C(NCCOc1ccccc1Cl)c1cccc(I)c1`, the thermal shift dTm was 0.86 °C.
In the case of `c1csc(-c2nc(-c3cccs3)c(-c3cccs3)[nH]2)c1`, the thermal shift dTm is reported as 0.06 °C.
In the case of `COc1ccc(N2C(=O)N(c3ccc(F)cc3)C3CS(=O)(=O)CC32)cc1` (centres undefined), the thermal shift dTm is reported as 0.02 °C.
Molecule `O=C(COc1ccc(Cl)cc1Cl)NCCSCc1ccccc1Cl` has a thermal shift dTm of 0.1 °C.
With `CCC(Oc1ccccc1)c1nnc(NC(=O)Cc2ccccc2)s1` (centres undefined) the thermal shift dTm was 0.4 °C.
For `Cc1cc(OCC(=O)Nc2ccc(O)cc2)cc(C)c1Cl`, the thermal shift dTm was 0.45 °C.
`CSc1ncc(Cl)c(C(=O)Nc2nnc(SCc3ccccc3)s2)n1` was tested, and the thermal shift dTm was 0.28 °C.
In the case of `O=C(COc1ccc(Cl)cc1)Nc1ccc(C(=O)NCC2CCCO2)cc1` (centres undefined), the thermal shift dTm is reported as inactive: -0.05 °C.
Molecule `O=S(=O)(c1cccs1)N1CCC(CO)(Cc2ccccc2C(F)(F)F)CC1` has a thermal shift dTm of 0.43 °C.
For `COc1ccc2[nH]cc(CCNC(=O)c3ccc(OC(C)=O)cc3)c2c1`, the thermal shift dTm was 0.81 °C.
Molecule `COc1cc(/C=N/O)cc(Cl)c1OCc1ccccc1F` has a thermal shift dTm of 0.06 °C.
`COc1ccc(CC2(CO)CCN(S(=O)(=O)c3ccc(Cl)s3)CC2)cc1` was tested, and the thermal shift dTm was 0.61 °C.
With `O=C(c1ccc(NC(=O)c2ccccc2F)cc1)c1cccs1` the thermal shift dTm was 0.94 °C.
In the case of `NS(=O)(=O)c1ccc(NC(=O)c2ccc(Br)s2)cc1`, the thermal shift dTm is reported as 0.74 °C.
`Cc1ccc(Nc2nc(C3(C)CC4(CC(C)OC4=O)C(=O)O3)cs2)cc1` (centres undefined) was tested, and the thermal shift dTm was 0.11 °C.
`CC(=O)Nc1ccc(NC(=O)CCc2nc(-c3ccccc3)no2)cc1` showed a thermal shift dTm of 0.14 °C.
With `O=C(Nc1nc(-c2ccccc2Cl)cs1)Oc1ccccc1` the thermal shift dTm was 0.16 °C.
In the case of `COc1cc(NC(=O)Nc2cccc(C)c2)cc(OC)c1`, the thermal shift dTm is reported as 0.52 °C.
`CCOc1ccc(NC(=O)Nc2cc(OC)c(OC)c(OC)c2)cc1` was tested, and the thermal shift dTm was active: 1.64 °C.
`Cn1cc(C(=O)CSc2nnc(-c3ccccc3)o2)c2ccccc21` showed a thermal shift dTm of 0.23 °C.
For `NC(=O)c1ccnc(-c2ccc(-c3ccn[nH]3)cc2)c1`, the thermal shift dTm was inactive: 0 °C.
`CCOC(=O)c1cc(C)sc1NC(=O)CC1Sc2ccccc2NC1=O` (centres undefined) showed a thermal shift dTm of 0.02 °C.
`O=C1CN(Cc2cn(C3CCN(C(=O)Nc4ccc(F)cc4)CC3)nn2)CCN1` showed a thermal shift dTm of 0.14 °C.
For `C=CCc1c(C)nc2c(-c3ccccc3)cnn2c1NCc1cccnc1`, the thermal shift dTm was inactive: -0.08 °C.
`COc1ccc(-c2noc(CSc3nc(-c4ccccc4)cc(=O)[nH]3)n2)cc1` gave a thermal shift dTm of 0.07 °C.
For `CCS(=O)(=O)c1ccc(O)c(Nc2cc(-c3ccccc3)ncn2)c1`, the thermal shift dTm was inactive: -0.05 °C.
